# In the supplement of paper PMC11732987, “Enantioselective OTUD7B fragment discovery through chemoproteomics screening and high-throughput optimisation” (Communications Chemistry, 2025):
# Protein sequences, listed by entry. Tags and fused reporters are not part of them. Lines headed by an entry give the natural chain unless they say otherwise; changes in a name come on top. Residues count along the entry.
# UniProt Q5JS54: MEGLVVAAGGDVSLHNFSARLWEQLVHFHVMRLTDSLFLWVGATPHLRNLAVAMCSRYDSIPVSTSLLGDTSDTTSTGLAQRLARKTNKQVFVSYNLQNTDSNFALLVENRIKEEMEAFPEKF
# UniProt P11216: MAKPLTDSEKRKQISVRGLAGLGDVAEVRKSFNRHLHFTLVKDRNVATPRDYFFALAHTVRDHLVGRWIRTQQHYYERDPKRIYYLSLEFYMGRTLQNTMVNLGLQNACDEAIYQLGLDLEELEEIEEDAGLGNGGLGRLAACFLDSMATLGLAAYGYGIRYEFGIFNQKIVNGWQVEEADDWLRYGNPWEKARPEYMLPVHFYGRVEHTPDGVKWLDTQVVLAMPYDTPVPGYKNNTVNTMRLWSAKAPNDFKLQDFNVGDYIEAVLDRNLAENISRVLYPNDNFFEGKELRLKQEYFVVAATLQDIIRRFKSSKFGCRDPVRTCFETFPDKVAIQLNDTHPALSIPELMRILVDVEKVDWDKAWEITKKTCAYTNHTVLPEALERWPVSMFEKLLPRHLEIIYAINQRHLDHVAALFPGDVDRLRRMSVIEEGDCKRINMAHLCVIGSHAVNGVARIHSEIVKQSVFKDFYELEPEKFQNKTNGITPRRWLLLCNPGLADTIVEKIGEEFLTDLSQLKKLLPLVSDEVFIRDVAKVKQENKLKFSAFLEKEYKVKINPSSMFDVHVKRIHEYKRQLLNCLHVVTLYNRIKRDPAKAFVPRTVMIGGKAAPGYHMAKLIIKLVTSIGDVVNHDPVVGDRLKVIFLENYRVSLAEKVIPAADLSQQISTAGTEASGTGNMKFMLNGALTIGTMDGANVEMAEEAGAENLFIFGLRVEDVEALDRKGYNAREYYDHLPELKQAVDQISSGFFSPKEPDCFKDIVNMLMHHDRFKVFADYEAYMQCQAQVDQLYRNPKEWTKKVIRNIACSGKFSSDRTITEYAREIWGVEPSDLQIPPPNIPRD
# UniProt P60484: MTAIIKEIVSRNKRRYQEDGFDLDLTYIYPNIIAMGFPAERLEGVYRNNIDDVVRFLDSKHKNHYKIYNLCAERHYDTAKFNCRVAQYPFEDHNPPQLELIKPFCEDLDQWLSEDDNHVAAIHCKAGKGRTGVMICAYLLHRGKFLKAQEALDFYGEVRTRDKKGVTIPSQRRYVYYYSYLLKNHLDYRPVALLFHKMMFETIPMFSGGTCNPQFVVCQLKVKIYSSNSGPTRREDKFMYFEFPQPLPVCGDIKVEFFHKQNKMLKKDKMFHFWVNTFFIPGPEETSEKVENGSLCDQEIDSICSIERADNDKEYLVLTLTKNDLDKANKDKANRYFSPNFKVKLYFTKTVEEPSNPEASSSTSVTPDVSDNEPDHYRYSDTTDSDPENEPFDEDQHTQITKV
# UniProt Q9Y520: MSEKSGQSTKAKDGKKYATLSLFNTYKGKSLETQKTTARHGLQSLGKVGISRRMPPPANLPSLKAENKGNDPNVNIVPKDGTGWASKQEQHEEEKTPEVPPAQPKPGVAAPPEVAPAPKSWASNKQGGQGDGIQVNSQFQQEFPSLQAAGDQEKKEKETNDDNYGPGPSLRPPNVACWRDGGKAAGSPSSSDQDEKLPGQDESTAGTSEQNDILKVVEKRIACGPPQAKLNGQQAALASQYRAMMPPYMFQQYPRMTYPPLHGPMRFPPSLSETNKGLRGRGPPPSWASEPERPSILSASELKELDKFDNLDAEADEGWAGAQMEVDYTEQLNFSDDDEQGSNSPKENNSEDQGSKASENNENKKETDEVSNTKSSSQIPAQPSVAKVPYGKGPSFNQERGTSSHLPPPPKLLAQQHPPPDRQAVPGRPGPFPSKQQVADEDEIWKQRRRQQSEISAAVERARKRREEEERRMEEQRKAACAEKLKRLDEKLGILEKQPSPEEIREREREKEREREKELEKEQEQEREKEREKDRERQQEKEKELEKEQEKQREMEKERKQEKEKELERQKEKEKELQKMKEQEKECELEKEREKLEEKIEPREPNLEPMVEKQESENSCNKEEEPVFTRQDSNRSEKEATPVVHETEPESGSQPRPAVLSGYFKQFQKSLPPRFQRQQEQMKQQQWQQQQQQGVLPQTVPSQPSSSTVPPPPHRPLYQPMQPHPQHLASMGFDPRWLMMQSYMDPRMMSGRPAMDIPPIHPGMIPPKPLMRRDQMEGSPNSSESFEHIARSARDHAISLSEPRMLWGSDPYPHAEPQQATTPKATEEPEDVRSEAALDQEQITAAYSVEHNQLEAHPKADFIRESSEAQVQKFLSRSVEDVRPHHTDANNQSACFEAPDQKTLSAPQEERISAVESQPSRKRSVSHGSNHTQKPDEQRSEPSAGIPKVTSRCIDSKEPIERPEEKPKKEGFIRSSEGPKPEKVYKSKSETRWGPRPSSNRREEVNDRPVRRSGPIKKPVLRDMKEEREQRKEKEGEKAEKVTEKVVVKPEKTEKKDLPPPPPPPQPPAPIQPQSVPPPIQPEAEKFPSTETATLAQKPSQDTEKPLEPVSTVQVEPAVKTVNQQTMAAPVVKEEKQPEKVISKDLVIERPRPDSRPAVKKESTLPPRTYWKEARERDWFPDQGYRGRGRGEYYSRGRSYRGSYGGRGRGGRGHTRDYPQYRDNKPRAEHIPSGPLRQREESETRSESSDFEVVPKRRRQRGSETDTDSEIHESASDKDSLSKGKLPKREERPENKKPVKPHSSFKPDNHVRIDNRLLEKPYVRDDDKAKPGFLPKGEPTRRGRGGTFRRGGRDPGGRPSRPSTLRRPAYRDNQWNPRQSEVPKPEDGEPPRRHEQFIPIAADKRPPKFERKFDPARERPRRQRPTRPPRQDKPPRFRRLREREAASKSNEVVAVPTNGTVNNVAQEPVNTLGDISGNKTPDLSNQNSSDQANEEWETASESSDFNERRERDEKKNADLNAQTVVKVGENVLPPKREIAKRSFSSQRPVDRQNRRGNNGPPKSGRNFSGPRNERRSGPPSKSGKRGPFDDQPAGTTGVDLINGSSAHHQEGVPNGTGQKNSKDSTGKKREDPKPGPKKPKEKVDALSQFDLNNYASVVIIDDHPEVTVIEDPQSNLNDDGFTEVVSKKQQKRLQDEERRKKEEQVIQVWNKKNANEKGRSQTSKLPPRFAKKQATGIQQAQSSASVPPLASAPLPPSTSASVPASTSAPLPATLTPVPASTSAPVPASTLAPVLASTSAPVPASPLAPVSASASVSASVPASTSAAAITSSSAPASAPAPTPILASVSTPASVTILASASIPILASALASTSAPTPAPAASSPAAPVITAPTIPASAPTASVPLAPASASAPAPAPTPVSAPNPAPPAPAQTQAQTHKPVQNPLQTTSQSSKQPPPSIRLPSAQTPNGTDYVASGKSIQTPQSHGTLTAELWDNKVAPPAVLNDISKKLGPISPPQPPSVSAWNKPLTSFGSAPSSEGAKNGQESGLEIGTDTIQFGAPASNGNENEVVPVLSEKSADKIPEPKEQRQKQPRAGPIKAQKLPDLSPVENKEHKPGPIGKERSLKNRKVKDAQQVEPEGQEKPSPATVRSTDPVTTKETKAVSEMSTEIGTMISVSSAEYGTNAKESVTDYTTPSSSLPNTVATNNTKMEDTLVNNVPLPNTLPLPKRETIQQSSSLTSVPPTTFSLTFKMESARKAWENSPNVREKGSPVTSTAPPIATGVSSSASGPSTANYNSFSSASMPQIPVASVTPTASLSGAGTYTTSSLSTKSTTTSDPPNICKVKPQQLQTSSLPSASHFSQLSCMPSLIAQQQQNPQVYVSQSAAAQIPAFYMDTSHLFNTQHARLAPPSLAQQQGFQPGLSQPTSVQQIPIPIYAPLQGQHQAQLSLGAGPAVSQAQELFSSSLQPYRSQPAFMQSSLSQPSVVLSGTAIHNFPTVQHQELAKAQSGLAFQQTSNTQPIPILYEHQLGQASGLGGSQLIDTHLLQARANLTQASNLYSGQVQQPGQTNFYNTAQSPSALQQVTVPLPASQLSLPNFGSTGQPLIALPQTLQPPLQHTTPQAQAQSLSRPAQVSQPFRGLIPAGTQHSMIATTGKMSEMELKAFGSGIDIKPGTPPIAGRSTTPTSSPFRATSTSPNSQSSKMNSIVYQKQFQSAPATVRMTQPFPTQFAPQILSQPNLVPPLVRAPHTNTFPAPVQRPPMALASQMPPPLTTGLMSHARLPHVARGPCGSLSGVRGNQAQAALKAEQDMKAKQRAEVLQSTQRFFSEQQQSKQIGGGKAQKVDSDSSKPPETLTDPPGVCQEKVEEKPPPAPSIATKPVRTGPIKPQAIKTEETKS
# UniProt Q5THK1: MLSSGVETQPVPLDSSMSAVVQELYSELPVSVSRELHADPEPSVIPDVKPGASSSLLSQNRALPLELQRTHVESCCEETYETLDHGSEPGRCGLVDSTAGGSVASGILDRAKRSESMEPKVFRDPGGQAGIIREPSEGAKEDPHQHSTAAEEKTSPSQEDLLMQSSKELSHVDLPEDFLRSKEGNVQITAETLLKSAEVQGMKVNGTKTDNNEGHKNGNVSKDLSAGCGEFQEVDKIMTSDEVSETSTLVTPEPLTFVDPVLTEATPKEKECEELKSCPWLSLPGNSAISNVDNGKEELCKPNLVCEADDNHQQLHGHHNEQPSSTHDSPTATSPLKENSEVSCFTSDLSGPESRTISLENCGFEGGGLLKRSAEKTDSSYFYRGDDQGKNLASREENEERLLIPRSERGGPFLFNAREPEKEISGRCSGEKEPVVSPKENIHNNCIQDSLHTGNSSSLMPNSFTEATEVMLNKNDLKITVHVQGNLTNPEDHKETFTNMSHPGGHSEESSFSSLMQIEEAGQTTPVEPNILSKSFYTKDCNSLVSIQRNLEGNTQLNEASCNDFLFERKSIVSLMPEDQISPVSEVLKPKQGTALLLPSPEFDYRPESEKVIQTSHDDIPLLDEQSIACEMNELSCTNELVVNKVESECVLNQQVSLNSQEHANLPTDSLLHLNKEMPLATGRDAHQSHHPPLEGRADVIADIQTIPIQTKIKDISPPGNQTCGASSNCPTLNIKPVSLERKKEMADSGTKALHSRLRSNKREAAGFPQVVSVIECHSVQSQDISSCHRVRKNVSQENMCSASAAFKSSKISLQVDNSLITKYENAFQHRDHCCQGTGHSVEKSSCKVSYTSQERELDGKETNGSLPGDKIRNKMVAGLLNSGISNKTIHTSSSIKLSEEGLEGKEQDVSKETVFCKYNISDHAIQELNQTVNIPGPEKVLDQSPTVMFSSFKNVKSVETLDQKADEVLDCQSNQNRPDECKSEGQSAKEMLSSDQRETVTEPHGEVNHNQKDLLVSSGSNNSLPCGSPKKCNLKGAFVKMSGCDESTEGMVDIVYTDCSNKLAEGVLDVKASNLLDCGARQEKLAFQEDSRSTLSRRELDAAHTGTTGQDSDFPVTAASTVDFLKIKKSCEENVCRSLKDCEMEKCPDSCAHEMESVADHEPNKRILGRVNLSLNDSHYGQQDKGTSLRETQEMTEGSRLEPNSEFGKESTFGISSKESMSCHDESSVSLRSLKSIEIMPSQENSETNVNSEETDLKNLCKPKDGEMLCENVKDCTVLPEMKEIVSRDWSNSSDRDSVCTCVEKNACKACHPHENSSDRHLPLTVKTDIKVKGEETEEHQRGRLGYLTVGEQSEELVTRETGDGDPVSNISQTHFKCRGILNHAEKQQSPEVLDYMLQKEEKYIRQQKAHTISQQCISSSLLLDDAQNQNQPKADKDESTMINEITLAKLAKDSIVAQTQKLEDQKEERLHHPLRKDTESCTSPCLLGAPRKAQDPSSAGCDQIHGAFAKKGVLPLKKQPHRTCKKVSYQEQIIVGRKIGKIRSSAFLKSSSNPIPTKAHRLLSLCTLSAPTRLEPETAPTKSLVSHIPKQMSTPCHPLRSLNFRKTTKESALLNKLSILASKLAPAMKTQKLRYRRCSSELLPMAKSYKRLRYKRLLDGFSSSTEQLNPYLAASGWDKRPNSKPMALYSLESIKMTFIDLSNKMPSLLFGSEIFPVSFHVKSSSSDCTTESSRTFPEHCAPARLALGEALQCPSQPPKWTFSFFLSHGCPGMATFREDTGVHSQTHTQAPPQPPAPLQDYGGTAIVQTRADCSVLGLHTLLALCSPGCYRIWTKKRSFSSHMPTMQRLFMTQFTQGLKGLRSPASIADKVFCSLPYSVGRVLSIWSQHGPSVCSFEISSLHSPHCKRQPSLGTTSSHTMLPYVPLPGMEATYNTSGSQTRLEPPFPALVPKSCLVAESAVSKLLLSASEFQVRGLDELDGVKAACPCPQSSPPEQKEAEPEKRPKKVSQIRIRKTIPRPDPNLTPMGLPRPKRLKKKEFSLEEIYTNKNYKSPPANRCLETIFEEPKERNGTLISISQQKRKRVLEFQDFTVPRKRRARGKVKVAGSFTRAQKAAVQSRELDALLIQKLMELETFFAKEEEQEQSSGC
# UniProt Q5HYI8, 164-184: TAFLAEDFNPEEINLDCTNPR
# UniProt Q15185: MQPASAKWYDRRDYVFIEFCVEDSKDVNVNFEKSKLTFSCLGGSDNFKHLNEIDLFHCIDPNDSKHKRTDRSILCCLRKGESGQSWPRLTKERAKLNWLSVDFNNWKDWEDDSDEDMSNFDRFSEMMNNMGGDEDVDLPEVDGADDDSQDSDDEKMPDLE
# The other results are listed elsewhere or left out. The data scatter; read single values as rough.
# Tests used:
# [1] = compound: ClCC(=O)N[C@@H]1CCCc2ccccc12; assay: log2 mean competition ratio of IA-DTB cysteine labelling (DMSO/compound) (log2 ratio); higher = stronger cysteine engagement by compound; conditions: treatment time: 4 h, cell line lysate: HEK293T
# Protocol: (§1)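 IA-DTB competitive cysteine chemoproteomics in HEK293T RIPA lysate. Lysates were treated with compound 29 or 30 at 50 or 200 µM for 4 h, then IA-DTB (500 µM, 1 h), trypsin-digested, NeutrAvidin-enriched and analysed by diaPASEF. Competition ratio = intensity DMSO / intensity compound (n=4 treated, n=64 DMSO); binding: mean log2 CR ≥ 1 and p ≤ 0.05 plus QC filters. Target is the cysteine site.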
# [2] = compound: ClCC(=O)N[C@H]1CCCc2ccccc12; assay: as above; conditions: treatment time: 4 h, cell line lysate: HEK293T
# Protocol: as §1
Target,log2 mean competition ratio ([1]; 50 µM),log2 mean competition ratio ([1]; 200 µM),log2 mean competition ratio ([2]; 50 µM),log2 mean competition ratio ([2]; 200 µM)
PXN C546 (UniProt P49023),-0.0415,-0.116,0.03,0.0452
PUS3 C420 (UniProt Q9BZE2),0.0649,0.322,0.0978,0.309
PTK2 C559 (UniProt Q05397),-0.0753,0.0293,0.132,0.0903
PWP1 C329 (UniProt Q13610),0.149,-0.201,-0.229,0.129
PSMG4 C55 (UniProt Q5JS54),0.279,-0.292,0.0782,-0.283
PYGB C326 (UniProt P11216),0.0626,-0.0326,-0.135,0.0892
PSMD11 C289 (UniProt O00231),0.31,0.00223,0.3,0.0204
PSMD6 C58 (UniProt Q15008),0.296,0.0436,0.306,0.181
PTEN C71 (UniProt P60484),0.224,0.0242,0.176,0.116
PRRC2C C620 (UniProt Q9Y520),-0.152,-0.475,-0.8,-0.269
RAB18 C110,0.0121,0.206,0.197,-0.241
PSMD4 C87,-0.0501,-0.139,-0.334,-0.193
PRR5 C318,0.253,-0.138,0.0485,0.123
PTPN1 C121 (UniProt P18031),0.216,-0.0223,-0.171,0.0467
PSMC6 C170 (UniProt P62333),0.278,0.317,0.0385,0.21
RAD1 C215 (UniProt O60671),-0.0202,0.383,-0.183,-0.145
RAD54L2 C71 (UniProt Q9Y4B4),-0.00486,-0.517,0.472,0.0454
RABGAP1L C777 (UniProt Q5R372),0.289,0.0158,-0.18,0.0968
PTPN9 C338 (UniProt P43378),0.0811,-0.00532,-0.0037,0.0833
PYCR1 C120,0.143,0.104,-0.152,0.0776
RAD54L2 C471 (UniProt Q9Y4B4),0.118,0.28,-0.0421,0.0704
PSMC3 C240,0.0313,0.151,0.0184,0.073
RAB21 C40 (UniProt Q9UL25),0.13,-0.149,0.061,0.0214

# Looked up one by one from the list above, 2 records:
Target,log2 mean competition ratio ([1]; 50 µM),log2 mean competition ratio ([1]; 200 µM),log2 mean competition ratio ([2]; 50 µM),log2 mean competition ratio ([2]; 200 µM)
PRRC2C C620 (UniProt Q9Y520),-0.152,-0.475,-0.8,-0.269
PSMD6 C58 (UniProt Q15008),0.296,0.0436,0.306,0.181

# (list continues)

Target,log2 mean competition ratio ([1]; 50 µM),log2 mean competition ratio ([1]; 200 µM),log2 mean competition ratio ([2]; 50 µM),log2 mean competition ratio ([2]; 200 µM)
RAD51B C185 (UniProt O15315),-0.162,0.0206,-0.346,0.00461
PRR14L C1640 (UniProt Q5THK1),-0.0392,0.269,0.0067,0.366
PTPN13 C324 (UniProt Q12923),0.26,-0.000176,0.174,0.079
PRR14L C1956 (UniProt Q5THK1),-0.145,-0.0487,0.0915,-0.0178
PSMD1 C104,-0.166,-0.0484,0.126,-0.298
R3HCC1L C40,0.263,-0.299,-0.0106,-0.231
RABL3 C180 (UniProt Q5HYI8),-0.112,-0.00612,-0.347,0.122
PRRC2C C223 (UniProt Q9Y520),-0.0177,-0.00157,0.148,0.0185
RAB2B C154 (UniProt Q8WUD1),-0.0224,-0.0772,-0.0185,-0.0704
RABGGTB C40 (UniProt P53611),-0.22,-0.165,-0.107,-0.107
RAD54L C295 (UniProt Q92698),-0.123,0.601,0.0857,-0.18
R3HCC1 C100 (UniProt Q9Y3T6+R3HCC1),0.0264,-0.0391,0.213,0.191
RAD1 C239 (UniProt O60671),0.1,-0.00327,0.241,-0.12
RAB22A C9 (UniProt Q9UL26),-0.055,0.00108,-0.364,0.0165
PSME3IP1 C44,-0.033,-0.14,-0.0989,-0.0189
RAB3B C137 (UniProt P20337),-0.142,0.0406,0.0952,0.00244
PSMD13 C357 (UniProt Q9UNM6),0.102,-0.351,0.00967,-0.216
PSMD5 C64 (UniProt Q16401),0.0868,0.038,-0.406,-0.159
PRR14L C1730 (UniProt Q5THK1),0.0323,-0.0589,-0.0743,0.348
PTGES3 C40 (UniProt Q15185),0.464,0.166,0.119,0.11
PTP4A1 C49 (UniProt Q93096),0.0799,0.152,-0.333,0.00604
PSMD5 C133 (UniProt Q16401),-0.243,-0.0284,-0.22,-0.149
